{"sequences": {"note": "Protein sequences, listed by entry. Tags and fused reporters are not part of them. Lines headed by an entry give the natural chain unless they say otherwise; changes in a name come on top.", "UniProt P22607": "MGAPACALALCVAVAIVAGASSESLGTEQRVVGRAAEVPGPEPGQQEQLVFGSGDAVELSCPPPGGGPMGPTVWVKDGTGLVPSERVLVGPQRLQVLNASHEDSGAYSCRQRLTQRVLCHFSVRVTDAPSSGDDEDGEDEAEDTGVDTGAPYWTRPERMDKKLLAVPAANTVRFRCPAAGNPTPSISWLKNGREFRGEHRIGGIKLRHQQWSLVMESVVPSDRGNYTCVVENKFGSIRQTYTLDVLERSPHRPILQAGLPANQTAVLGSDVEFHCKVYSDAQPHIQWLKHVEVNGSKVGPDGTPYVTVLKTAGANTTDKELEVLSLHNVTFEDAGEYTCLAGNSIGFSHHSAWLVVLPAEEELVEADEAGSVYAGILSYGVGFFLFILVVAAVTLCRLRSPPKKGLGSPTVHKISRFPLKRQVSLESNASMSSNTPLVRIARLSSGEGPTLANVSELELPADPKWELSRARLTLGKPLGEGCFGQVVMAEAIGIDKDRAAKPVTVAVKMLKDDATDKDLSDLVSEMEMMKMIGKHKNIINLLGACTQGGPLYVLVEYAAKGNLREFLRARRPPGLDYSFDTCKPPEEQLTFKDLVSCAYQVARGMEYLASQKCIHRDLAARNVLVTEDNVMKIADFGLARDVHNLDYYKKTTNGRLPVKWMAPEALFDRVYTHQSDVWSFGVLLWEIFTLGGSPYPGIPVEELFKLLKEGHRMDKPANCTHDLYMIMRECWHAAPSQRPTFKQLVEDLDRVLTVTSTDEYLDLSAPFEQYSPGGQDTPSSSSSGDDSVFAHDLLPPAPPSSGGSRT"}, "source": "patent US20240101684A1", "about": "(AIMED BIO, published 2024)", "binders": {"B1": {"name": "FS301 (antibody, V domains shown)", "VH": "EVQLLESGGGLVQPGGSLRLSCAASGFTFSNYAIHWVRQAPGKGLEWVSSIIPISGTANYAQKFQGRFTISRDNSKNTLYLQMNSLRAEDTAVYYCSRGGYGFDYWGQGTLVTVSS", "VL": "EIVLTQSPGTLSLSPGERATLSCRASQSISTFLNWYQQKPGQAPRLLIYDATNRATGIPDRFSGSGSGTDFTLTISRLEPEDFAVYYCQQANSFPLTFGQGTKVEIK"}}, "target": "human FGFR3 IIIc recombinant protein (766-FR-050, R&D) (human) (UniProt P22607)", "experiment": "SPR (Biacore), hFGFR3-iiic immobilised on the chip, antibody injected", "note": "Results are given in words; binding and its absence hold for the method and conditions named. Binding can be weak; no strength is given."}
{"binder": "B1", "values": [{"measurement": "binding", "result": "binds"}]}
